{"source": "paper doi:10.1101/2021.02.17.431755", "binders": {"B1": {"name": "HA-tagged RIG-I, O95786 1-925 (protein)", "chain": "MTTEQRRSLQAFQDYIRKTLDPTYILSYMAPWFREEEVQYIQAEKNNKGPMEAATLFLKFLLELQEEGWFRGFLDALDHAGYSGLYEAIESWDFKKIEKLEEYRLLLKRLQPEFKTRIIPTDIISDLSECLINQECEEILQICSTKGMMAGAEKLVECLLRSDKENWPKTLKLALEKERNKFSELWIVEKGIKDVETEDLEDKMETSDIQIFYQEDPECQNLSENSCPPSEVSDTNLYSPFKPRNYQLELALPAMKGKNTIICAPTGCGKTFVSLLICEHHLKKFPQGQKGKVVFFANQIPVYEQQKSVFSKYFERHGYRVTGISGATAENVPVEQIVENNDIIILTPQILVNNLKKGTIPSLSIFTLMIFDECHNTSKQHPYNMIMFNYLDQKLGGSSGPLPQVIGLTASVGVGDAKNTDEALDYICKLCASLDASVIATVKHNLEELEQVVYKPQKFFRKVESRISDKFKYIIAQLMRDTESLAKRICKDLENLSQIQNREFGTQKYEQWIVTVQKACMVFQMPDKDEESRICKALFLYTSHLRKYNDALIISEHARMKDALDYLKDFFSNVRAAGFDEIEQDLTQRFEEKLQELESVSRDPSNENPKLEDLCFILQEEYHLNPETITILFVKTRALVDALKNWIEGNPKLSFLKPGILTGRGKTNQNTGMTLPAQKCILDAFKASGDHNILIATSVADEGIDIAQCNLVILYEYVGNVIKMIQTRGRGRARGSKCFLLTSNAGVIEKEQINMYKEKMMNDSILRLQTWDEAVFREKILHIQTHEKFIRDSQEKPKPVPDKENKKLLCRKCKALACYTADVRVIEECHYTVLGDAFKECFVSRPHPKPKQFSSFEKRAKIFCARQNCSHDWGIHVKYKTFEIPVIKIESFVVEDIATGVQTLYSKWKDFHFEKIPFDPAEMSK"}}, "molecular_target": "Flag-tagged full-length TRIM25, Q14258", "test": "co-IP", "details": "remark: other sources report otherwise", "note": "No constants are given. Whether binding was seen depends on the method and setting. In cells and extracts the contact can be indirect. Some results given as binding are weak or reduced against the parent protein; the word gives no strength. Tags and fused reporters may be left off the sequences shown.", "data": [{"binder": "B1", "values": [{"measurement": "binding", "result": "binds"}]}]}
